These are yes or no findings as the source states them, for the method shown. Some binding calls cover weakened binding; strength is not graded here.
Molecular target: soluble human CD16A (sCD16A) (human) (UniProt P08637)
Experiment: ELISA, captured sCD16A

Protein sequences, listed by entry. Tags and fused reporters are not part of them. Lines headed by an entry give the natural chain unless they say otherwise; changes in a name come on top.
UniProt P08637: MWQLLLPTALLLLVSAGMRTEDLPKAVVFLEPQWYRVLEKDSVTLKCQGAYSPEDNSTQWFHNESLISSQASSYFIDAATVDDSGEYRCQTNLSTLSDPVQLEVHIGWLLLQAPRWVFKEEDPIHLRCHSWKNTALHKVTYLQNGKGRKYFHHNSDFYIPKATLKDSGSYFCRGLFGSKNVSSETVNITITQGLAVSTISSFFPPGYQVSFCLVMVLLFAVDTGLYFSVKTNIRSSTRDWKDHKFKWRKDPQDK

B1: hu3G8VH-32/hu3G8VL-1 (antibody)
VH: QITLKESGPTLVKPTQTLTLTCTFSGFSLSTSGVGVGWIRQPPGKALEWLALIWWDDDKRYSPSLKSRLTISKDTSKNQVVLTMTNMDPVDTATYYCARINPAWFAYWGQGTLVTVSS
light: DIVMTQSPDSLAVSLGERATINCKASQSVDFDGDSFMNWYQQKPGQPPKLLIYTTSNLESGVPDRFSGSGSGTDFTLTISSLQAEDVAVYYCQQSNEDPYTFGQGTKLEIKRTVAAPSVFIFPPSDEQLKSGTASVVCLLNNFYPREAKVQWKVDNALQSGNSQESVTEQDSKDSTYSLSSTLTLSKADYEKHKVYACEVTHQGLSSPVTKSFNRGEC
  binding: binds
